The data set can be described thus: general procedure: solution-phase peptide synthesis; HATU/DIEA. The note with it: late stage modification step.

In the case of “Benzyl (S)-11-benzyl-1-(9H-fluoren-9-yl)-20,20-dimethyl-3,6,9,12,15-pentaoxo-2,18-dioxa-4,7,10,13,16-pentaazahenicosan-21-oate”, the step yield is 29.2%.

The substance “(S)-11-benzyl-1-(9H-fluoren-9-yl)-20,20-dimethyl-3,6,9,12,15-pentaoxo-2,18-dioxa-4,7,10,13,16-pentaazahenicosan-21-oic Acid” had a step yield of 84.8%.

For the origin of these results see patent US20250222125A1 (BeiGene, Ltd., priority 2024, published 2025).
